Data published in the supplement of paper PMC3741180, “A Novel High Throughput Biochemical Assay to Evaluate the HuR Protein-RNA Complex Formation” (PLoS ONE, 2013).
Some of the results follow. Single values are uncertain here, since repeats match poorly. Peptide text beside a SMILES is read from it.

Chains of the proteins cited; added tags and fusions are not shown.
UniProt Q15717, whole entry: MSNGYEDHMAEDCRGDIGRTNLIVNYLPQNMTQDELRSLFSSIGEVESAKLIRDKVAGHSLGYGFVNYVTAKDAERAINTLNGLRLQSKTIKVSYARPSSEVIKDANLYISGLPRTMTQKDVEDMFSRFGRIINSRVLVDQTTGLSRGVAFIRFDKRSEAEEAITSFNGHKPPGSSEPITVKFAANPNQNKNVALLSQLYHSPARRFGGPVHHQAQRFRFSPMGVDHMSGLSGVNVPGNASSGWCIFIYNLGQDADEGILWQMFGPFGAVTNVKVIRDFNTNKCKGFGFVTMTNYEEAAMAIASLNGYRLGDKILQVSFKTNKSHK

target: HuR (ELAVL1) - TNFalpha ARE RNA complex (UniProt Q15717); experiment: AlphaScreen HuR-RNA complex signal Z-score relative to positive controls (secondary screen) (Z-score (SD units of positive control)); higher = more complex signal; details: screen stage: secondary re-screen

SMILES | AlphaScreen HuR-RNA complex signal Z-score
OC[C@@H](O)[C@@H](O)[C@H](O)[C@@H](O)CO | 1.05
CC(=O)OCC(=O)[C@@]1(O)CC[C@H]2[C@@H]3CCC4=CC(=O)CC[C@]4(C)[C@H]3C(=O)C[C@@]21C | 0.994
CC(=O)C12OC(C)(c3ccccc3)OC1CC1C3CCC4=CC(=O)CCC4(C)C3CCC12C (configuration not stated) | 0.358
CN[C@@H]1[C@H](O[C@H]2[C@H](O[C@H]3[C@H](O)[C@@H](O)[C@H](NC(=N)N)[C@@H](O)[C@@H]3NC(=N)N)O[C@@H](C)[C@]2(O)CO)O[C@@H](CO)[C@H](O)[C@H]1O | 0.331
COC(=O)[C@H](Cc1ccccc1)NC(=O)[C@@H](N)CC(=O)O (H-Asp-Phe-OMe) | -0.445
CCN(CC)CCCC(C)Nc1c2ccc(Cl)cc2nc2ccc(OC)cc12 (configuration not stated) | 1.87
O=C(Oc1ccccc1C(=O)O)c1ccccc1O | -3.87
O=C(O)c1cn(-c2ccc(F)cc2)c2cc(N3CCNCC3)c(F)cc2c1=O | -0.00228
CCCC(=O)Nc1ccc(OCC(O)CNC(C)C)c(C(C)=O)c1 (configuration not stated) | 1.86
CCN(CC)CCCC(C)Nc1ccnc2cc(Cl)ccc12 (configuration not stated) | 0.731
Oc1c(I)cc(Cl)c2cccnc12 | 0.803
CCOC(=O)[C@H](CCc1ccccc1)N[C@@H](C)C(=O)N1[C@H](C(=O)O)C[C@@H]2CCC[C@@H]21 | 1.25
OC(CCN1CCCCC1)(c1ccccc1)C1CC2C=CC1C2 (configuration not stated) | 0.544
N[C@H]1C(O)O[C@H](CO)[C@@H](O)[C@@H]1O (some centres not stated) | 0.357
OCc1ccccc1O | 1.49
C[C@@H]1C[C@H]2[C@@H]3CCC4=CC(=O)C=C[C@]4(C)[C@@]3(F)[C@@H](O)C[C@]2(C)[C@@]1(O)C(=O)CO | 1.36
N[C@@H](CSCSC[C@H](N)C(=O)O)C(=O)O | 0.337
CC(C)=CCC[C@@H](C)[C@@H]1CC[C@]2(C)C3=C(CC[C@@]12C)[C@@]1(C)CC[C@H](O)C(C)(C)[C@@H]1CC3 | 1.65
CO[C@@]1(NC(=O)C(C(=O)O)c2ccc(O)cc2)C(=O)N2C(C(=O)O)=C(CSc3nnnn3C)CO[C@@H]21 (some centres not stated) | -0.104

SMILES | AlphaScreen HuR-RNA complex signal Z-score
O=C1[C@H](CC[C@H](O)c2ccc(F)cc2)[C@@H](c2ccc(O)cc2)N1c1ccc(F)cc1 | 2.04
CN(C)CC[C@@H](c1ccc(Cl)cc1)c1ccccn1 | 1.22
N[C@@H]1CONC1=O | 0.704
NS(=O)(=O)c1cc2c(cc1Cl)NCNS2(=O)=O | 0.985
CN1CCN(C(c2ccccc2)c2ccc(Cl)cc2)CC1 (configuration not stated) | 0.622
COc1cc(NC(C)CCCN)c2ncccc2c1 (configuration not stated) | 3.29
O=C1c2ccccc2C(=O)C1(O)C1(O)C(=O)c2ccccc2C1=O | 0.681
O=C(O)CCC(=O)OC[C@@H](NC(=O)C(Cl)Cl)[C@H](O)c1ccc([N+](=O)[O-])cc1 | 0.978
CCOc1nc2cccc(C(=O)OC(C)OC(=O)OC3CCCCC3)c2n1Cc1ccc(-c2ccccc2-c2nn[nH]n2)cc1 (configuration not stated) | 1.74
CCCCCCCCCCCCCCCC(=O)OC[C@@H](NC(=O)C(Cl)Cl)[C@H](O)c1ccc([N+](=O)[O-])cc1 | 0.27
C[C@H]1[C@H](NC(=O)/C(=N\OC(C)(C)C(=O)O)c2csc(N)n2)C(=O)N1S(=O)(=O)O | 2.26
CC(=O)O[C@H]1C[C@@H](OC(C)=O)C(C)(C)C2CC(=O)[C@]3(C)C(CC[C@@]4(C)[C@H](c5ccoc5)OC(=O)[C@H]5O[C@]543)[C@]21C (some centres not stated) | 0.662
COc1ccc2cc1Oc1ccc(cc1)C[C@H]1c3cc(c(OC)cc3CCN1C)Oc1c(OC)c(OC)cc3c1[C@H](C2)N(C)CC3 | -1.49
O=C1C(O)=C([C@H]2CC[C@H](c3ccc(Cl)cc3)CC2)C(=O)c2ccccc21 | 2.02
C[C@H]1COc2c(N3CCN(C)CC3)c(F)cc3c(=O)c(C(=O)O)cn1c23 | 2.11
Cc1onc(-c2c(Cl)cccc2Cl)c1C(=O)N[C@@H]1C(=O)N2[C@@H]1SC(C)(C)[C@@H]2C(=O)O | 0.871
CCn1cc(C(=O)O)c(=O)c2cnc(N3CCCC3)nc21 | 0.164
c1ccc2[nH]c(-c3cscn3)nc2c1 | 1.82

Part of the list above in order of length of the SMILES, largest number first:
SMILES | AlphaScreen HuR-RNA complex signal Z-score
O=C(O)CCC(=O)OC[C@@H](NC(=O)C(Cl)Cl)[C@H](O)c1ccc([N+](=O)[O-])cc1 | 0.978
O=C1[C@H](CC[C@H](O)c2ccc(F)cc2)[C@@H](c2ccc(O)cc2)N1c1ccc(F)cc1 | 2.04
COc1cc(NC(C)CCCN)c2ncccc2c1 (configuration not stated) | 3.29
